Measurements: doi:10.1101/2023.02.19.529116
These are yes or no findings as the source states them, for the method shown. Some binding calls cover weakened binding; strength is not graded here. For some assays here: Sequences can lack the tags named with a protein.

T1: Smoothened (ReLo) (Drosophila) (UniProt P91682)
T1 sequence: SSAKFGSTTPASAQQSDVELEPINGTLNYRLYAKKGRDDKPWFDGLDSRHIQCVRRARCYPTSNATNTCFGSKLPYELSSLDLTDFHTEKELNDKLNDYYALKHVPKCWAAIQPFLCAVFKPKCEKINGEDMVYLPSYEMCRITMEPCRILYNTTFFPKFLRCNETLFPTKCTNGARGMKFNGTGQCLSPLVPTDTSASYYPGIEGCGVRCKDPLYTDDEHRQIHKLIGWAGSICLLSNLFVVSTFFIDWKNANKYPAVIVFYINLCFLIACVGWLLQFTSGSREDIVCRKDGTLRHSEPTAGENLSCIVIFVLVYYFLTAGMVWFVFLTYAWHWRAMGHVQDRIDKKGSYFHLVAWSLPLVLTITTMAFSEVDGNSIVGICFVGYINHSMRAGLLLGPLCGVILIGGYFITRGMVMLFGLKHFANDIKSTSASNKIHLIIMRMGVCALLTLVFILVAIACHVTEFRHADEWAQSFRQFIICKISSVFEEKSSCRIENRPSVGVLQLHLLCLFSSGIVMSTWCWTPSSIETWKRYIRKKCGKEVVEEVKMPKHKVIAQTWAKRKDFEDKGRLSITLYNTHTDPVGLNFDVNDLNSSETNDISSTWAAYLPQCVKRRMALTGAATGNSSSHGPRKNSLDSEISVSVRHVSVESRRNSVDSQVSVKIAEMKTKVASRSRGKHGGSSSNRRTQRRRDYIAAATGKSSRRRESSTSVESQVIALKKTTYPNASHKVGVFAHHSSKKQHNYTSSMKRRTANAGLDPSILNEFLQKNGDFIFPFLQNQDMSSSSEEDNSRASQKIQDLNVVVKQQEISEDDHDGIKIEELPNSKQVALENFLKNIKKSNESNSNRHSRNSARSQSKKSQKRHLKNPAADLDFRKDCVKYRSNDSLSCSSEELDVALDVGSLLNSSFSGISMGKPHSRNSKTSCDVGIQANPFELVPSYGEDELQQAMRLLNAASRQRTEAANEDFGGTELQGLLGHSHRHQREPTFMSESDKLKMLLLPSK

T2: Smoothened 958-1003 (ReLo) (Drosophila) (UniProt P91682)
T2 sequence: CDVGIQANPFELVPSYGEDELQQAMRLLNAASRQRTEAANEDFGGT

T3: PH-EGFP-Smaug (Drosophila) (UniProt Q23972)
T3 sequence: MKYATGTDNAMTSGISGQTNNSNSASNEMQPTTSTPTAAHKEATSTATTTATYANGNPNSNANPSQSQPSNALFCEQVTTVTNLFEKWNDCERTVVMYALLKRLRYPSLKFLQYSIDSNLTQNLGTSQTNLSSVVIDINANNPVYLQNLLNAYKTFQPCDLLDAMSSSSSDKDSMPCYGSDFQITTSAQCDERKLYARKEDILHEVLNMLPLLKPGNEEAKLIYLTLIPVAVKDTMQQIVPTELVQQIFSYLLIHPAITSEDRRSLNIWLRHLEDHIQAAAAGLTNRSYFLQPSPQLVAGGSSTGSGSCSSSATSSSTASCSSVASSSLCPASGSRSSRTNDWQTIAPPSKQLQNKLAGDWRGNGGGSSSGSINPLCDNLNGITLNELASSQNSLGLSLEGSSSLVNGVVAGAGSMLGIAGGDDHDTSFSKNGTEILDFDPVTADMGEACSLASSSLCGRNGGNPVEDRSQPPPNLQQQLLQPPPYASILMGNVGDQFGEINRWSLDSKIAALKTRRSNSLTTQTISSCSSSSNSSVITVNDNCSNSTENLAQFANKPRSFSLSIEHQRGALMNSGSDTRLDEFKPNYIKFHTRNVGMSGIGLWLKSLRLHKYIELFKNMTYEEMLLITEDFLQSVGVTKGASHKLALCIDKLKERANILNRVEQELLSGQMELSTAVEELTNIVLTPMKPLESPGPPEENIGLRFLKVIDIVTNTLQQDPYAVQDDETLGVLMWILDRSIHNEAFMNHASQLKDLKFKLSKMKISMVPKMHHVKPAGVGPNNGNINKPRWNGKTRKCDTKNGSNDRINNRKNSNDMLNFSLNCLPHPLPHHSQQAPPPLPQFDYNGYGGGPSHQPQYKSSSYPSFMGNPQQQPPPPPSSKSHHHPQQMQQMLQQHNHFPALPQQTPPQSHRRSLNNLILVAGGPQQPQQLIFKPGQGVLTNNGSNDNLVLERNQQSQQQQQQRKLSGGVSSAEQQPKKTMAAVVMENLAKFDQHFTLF


How the values were obtained:
Assay in all cases: ReLo
[1] = target: T1, Smoothened (ReLo) (Drosophila)
[2] = target: T2, Smoothened 958-1003 (ReLo) (Drosophila)
[3] = target: T3, PH-EGFP-Smaug (Drosophila)

Binder | binding [1] | binding [2] | binding [3]
Smaug (ReLo, without membrane anchor) (protein, UniProt Q23972 1-999) MKYATGTDNAMTSGISGQTNNSNSASNEMQPTTSTPTAAHKEATSTATTTATYANGNPNSNANPSQSQPSNALFCEQVTTVTNLFEKWNDCERTVVMYALLKRLRYPSLKFLQYSIDSNLTQNLGTSQTNLSSVVIDINANNPVYLQNLLNAYKTFQPCDLLDAMSSSSSDKDSMPCYGSDFQITTSAQCDERKLYARKEDILHEVLNMLPLLKPGNEEAKLIYLTLIPVAVKDTMQQIVPTELVQQIFSYLLIHPAITSEDRRSLNIWLRHLEDHIQAAAAGLTNRSYFLQPSPQLVAGGSSTGSGSCSSSATSSSTASCSSVASSSLCPASGSRSSRTNDWQTIAPPSKQLQNKLAGDWRGNGGGSSSGSINPLCDNLNGITLNELASSQNSLGLSLEGSSSLVNGVVAGAGSMLGIAGGDDHDTSFSKNGTEILDFDPVTADMGEACSLASSSLCGRNGGNPVEDRSQPPPNLQQQLLQPPPYASILMGNVGDQFGEINRWSLDSKIAALKTRRSNSLTTQTISSCSSSSNSSVITVNDNCSNSTENLAQFANKPRSFSLSIEHQRGALMNSGSDTRLDEFKPNYIKFHTRNVGMSGIGLWLKSLRLHKYIELFKNMTYEEMLLITEDFLQSVGVTKGASHKLALCIDKLKERANILNRVEQELLSGQMELSTAVEELTNIVLTPMKPLESPGPPEENIGLRFLKVIDIVTNTLQQDPYAVQDDETLGVLMWILDRSIHNEAFMNHASQLKDLKFKLSKMKISMVPKMHHVKPAGVGPNNGNINKPRWNGKTRKCDTKNGSNDRINNRKNSNDMLNFSLNCLPHPLPHHSQQAPPPLPQFDYNGYGGGPSHQPQYKSSSYPSFMGNPQQQPPPPPSSKSHHHPQQMQQMLQQHNHFPALPQQTPPQSHRRSLNNLILVAGGPQQPQQLIFKPGQGVLTNNGSNDNLVLERNQQSQQQQQQRKLSGGVSSAEQQPKKTMAAVVMENLAKFDQHFTLF | binds | binds | –
14-3-3ζ (protein, UniProt P29310 1-248) MSTVDKEELVQKAKLAEQSERYDDMAQAMKSVTETGVELSNEERNLLSVAYKNVVGARRSSWRVISSIEQKTEASARKQQLAREYRERVEKELREICYEVLGLLDKYLIPKASNPESKVFYLKMKGDYYRYLAEVATGDARNTVVDDSQTAYQDAFDISKGKMQPTHPIRLGLALNFSVFYYEILNSPDKACQLAKQAFDDAIAELDTLNEDSYKDSTLIMQLLRDNLTLWTSDTQGDEAEPQEGGDN | – | – | binds
Fused (enzyme, UniProt P23647 1-805) MNRYAVSSLVGQGSFGCVYKATRKDDSKVVAIKVISKRGRATKELKNLRRECDIQARLKHPHVIEMIESFESKTDLFVVTEFALMDLHRYLSYNGAMGEEPARRVTGHLVSALYYLHSNRILHRDLKPQNVLLDKNMHAKLCDFGLARNMTLGTHVLTSIKGTPLYMAPELLAEQPYDHHADMWSLGCIAYESMAGQPPFCASSILHLVKMIKHEDVKWPSTLTSECRSFLQGLLEKDPGLRISWTQLLCHPFVEGRIFIAETQAEAAKESPFTNPEAKVKSSKQSDPEVGDLDEALAALDFGESRQENLTTSRDSINAIAPSDVEHLETDVEDNMQRVVVPFADLSYRDLSGVRAMPMVHQPVINSHTCFVSGNSNMILNHMNDNFDFQASLRGGGVAAKPIVAPTVRQSRSKDLEKRKLSQNLDNFSVRLGHSVDHEAQRKATEIATQEKHNQENKPPAEAISYANSQPPQQQPQQLKHSMHSTNEEKLSSDNTPPCLLPGWDSCDESQSPPIENDEWLAFLNRSVQELLDGELDSLKQHNLVSIIVAPLRNSKAIPRVLKSVAQLLSLPFVLVDPVLIVDLELIRNVYVDVKLVPNLMYACKLLLSHKQLSDSAASAPLTTGSLSRTLRSIPELTVEELETACSLYELVCHLVHLQQQFLTQFCDAVAILAASDLFLNFLTHDFRQSDSDAASVRLAGCMLALMGCVLRELPENAELVERIVFNPRLNFVSLLQSRHHLLRQRSCQLLRLLARFSLRGVQRIWNGELRFALQQLSEHHSYPALRGEAAQTLDEISHFTFFVT | binds | – | –
Ago2 (protein, UniProt Q9VUQ5 1-1214) MGKKDKNKKGGQDSAAAPQPQQQQKQQQQRQQQPQQLQQPQQLQQPQQLQQPQQQQQQQPHQQQQQSSRQQPSTSSGGSRASGFQQGGQQQKSQDAEGWTAQKKQGKQQVQGWTKQGQQGGHQQGRQGQDGGYQQRPPGQQQGGHQQGRQGQEGGYQQRPPGQQQGGHQQGRQGQEGGYQQRPSGQQQGGHQQGRQGQEGGYQQRPPGQQQGGHQQGRQGQEGGYQQRPSGQQQGGHQQGRQGQEGGYQQRPPGQQQGGHQQGRQGQEGGYQQRPPGQQQGGHEQGRQGQEGGYQQRPSGQQQGGHQQGRQGQEGGYQQRPSGQQQGGHQQGRQGQEGGYQQRPSGQQQGGHQQGRQGQEGGYQQRPPGQQPNQTQSQGQYQSRGPPQQQQAAPLPLPPQPAGSIKRGTIGKPGQVGINYLDLDLSKMPSVAYHYDVKIMPERPKKFYRQAFEQFRVDQLGGAVLAYDGKASCYSVDKLPLNSQNPEVTVTDRNGRTLRYTIEIKETGDSTIDLKSLTTYMNDRIFDKPMRAMQCVEVVLASPCHNKAIRVGRSFFKMSDPNNRHELDDGYEALVGLYQAFMLGDRPFLNVDISHKSFPISMPMIEYLERFSLKAKINNTTNLDYSRRFLEPFLRGINVVYTPPQSFQSAPRVYRVNGLSRAPASSETFEHDGKKVTIASYFHSRNYPLKFPQLHCLNVGSSIKSILLPIELCSIEEGQALNRKDGATQVANMIKYAATSTNVRKRKIMNLLQYFQHNLDPTISRFGIRIANDFIVVSTRVLSPPQVEYHSKRFTMVKNGSWRMDGMKFLEPKPKAHKCAVLYCDPRSGRKMNYTQLNDFGNLIISQGKAVNISLDSDVTYRPFTDDERSLDTIFADLKRSQHDLAIVIIPQFRISYDTIKQKAELQHGILTQCIKQFTVERKCNNQTIGNILLKINSKLNGINHKIKDDPRLPMMKNTMYIGADVTHPSPDQREIPSVVGVAASHDPYGASYNMQYRLQRGALEEIEDMFSITLEHLRVYKEYRNAYPDHIIYYRDGVSDGQFPKIKNEELRCIKQACDKVGCKPKICCVIVVKRHHTRFFPSGDVTTSNKFNNVDPGTVVDRTIVHPNEMQFFMVSHQAIQGTAKPTRYNVIENTGNLDIDLLQQLTYNLCHMFPRCNRSVSYPAPAYLAHLVAARGRVYLTGTNRFLDLKKEYAKRTIVPEFMKKNPMYFV | – | – | no binding
